{"source": "PubChem BioAssay AID493014", "about": "(National Center for Advancing Translational Sciences (NCATS), 2011)", "test": "qHTS Assay to Find Inhibitors of Chronic Active B-Cell Receptor Signaling", "conditions": "ABC-DLBCL IkBa-CBG/CBR reporter, luminescence ratio (green luciferase fused to IkBa over red control in TMD8 lymphoma cells), 4 h", "procedure,_shortened": "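Cell line TMD8 (human ABC DLBCL), stably expressing tet-inducible CBG68-IkBa fusion and CBR; IMDM/0.5% FBS; cpd up to 46 uM; dox induction, 4 h, 37C/5% CO2; dual luminescence; green/red ratio; MG132 control.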", "key": {"[1]": {"conditions": "measured here: CBR red luminescence, cell number"}, "[2]": {"conditions": "measured here: IkBa-CBG green luminescence"}}, "note": "Some of the results follow. The main result of the screen is listed elsewhere. These columns were measured beside it and carry no call. Compounds called inactive in the main read-out are mostly missing here. Words in brackets tell the shape of the fitted curve; partial curves, single points and poor fits give uncertain potencies."}
{"smiles": "CCOc1ccc(Nc2nc(N)nc(CN(C)C3CCCCC3)n2)cc1", "values": [{"measurement": "AC50", "setting": "[1]", "result": "16.4 µM [rising, single point]"}]}
{"smiles": "Cc1cc(NC(=O)CSCC(=O)N(c2cccc(Cl)c2)C(C(=O)NC2CCCCC2)c2ccc(O)c(O)c2)no1", "note": "(configuration not stated)", "values": [{"measurement": "AC50", "setting": "[1]", "result": "18.4 µM [falling, single point]"}]}
{"smiles": "COc1ccc(-c2ccc(=O)n(CC(=O)Nc3ccccc3C(F)(F)F)n2)cc1", "values": [{"measurement": "AC50", "setting": "[1]", "result": "35.5 µM [rising, single point]"}]}
{"smiles": "COc1cccc(/C=N/Nc2ncnc(Cl)c2N)c1O", "values": [{"measurement": "AC50", "setting": "[1]", "result": "18.4 µM [rising, single point]"}]}
{"smiles": "Cc1cccc(NC(=O)[C@H](Cc2ccccc2)NC(=O)[C@@H]2Cc3ccccc3CN2)c1", "values": [{"measurement": "AC50", "setting": "[1]", "result": "2.51 µM [falling, single point]"}]}
{"smiles": "CC1=CCC2C(=O)N(c3cccc(C(=O)Nc4ccc(Cl)cc4)c3)C(=O)C2C1", "note": "(configuration not stated)", "values": [{"measurement": "AC50", "setting": "[1]", "result": "11.2 µM [falling, partial curve, poor fit]"}]}
{"smiles": "Cc1cc(=O)[nH]c(N=N/C(=N/Nc2ccccc2C)c2ccccc2)n1", "values": [{"measurement": "AC50", "setting": "[1]", "result": "0.0731 µM [rising, full curve, poor fit]"}]}
{"smiles": "CCOC(=O)c1nnc(-c2ccc(C)cc2)nc1Oc1ccc(Cl)cc1Cl", "values": [{"measurement": "AC50", "setting": "[1]", "result": "12.6 µM [falling, partial curve, poor fit]"}]}
{"smiles": "O=C(CSc1ncnc2c1nnn2-c1ccc(F)cc1)NCc1ccco1", "values": [{"measurement": "AC50", "setting": "[1]", "result": "16.4 µM [falling, partial curve]"}]}
{"smiles": "Cc1c(F)cccc1NS(=O)(=O)c1ccc2c(c1)c(=O)n(C)c(=O)n2C", "values": [{"measurement": "AC50", "setting": "[1]", "result": "12.6 µM [falling, partial curve]"}]}
{"smiles": "Cc1ccc(S(=O)(=O)N2CCN(S(C)(=O)=O)C2c2ccccc2)cc1", "note": "(configuration not stated)", "values": [{"measurement": "AC50", "setting": "[1]", "result": "18.4 µM [falling, partial curve, poor fit]"}]}
{"smiles": "Cc1ccc(C(=O)OCC(=O)NC2CCCC(C)C2C)cc1S(=O)(=O)N1CCCCC1", "note": "(configuration not stated)", "values": [{"measurement": "AC50", "setting": "[1]", "result": "14.6 µM [rising, partial curve]"}]}
{"smiles": "O=C(c1cc(-c2cccnc2)nc2ccccc12)N1CCCc2ccccc21", "values": [{"measurement": "AC50", "setting": "[1]", "result": "2.06 µM [rising, partial curve]"}]}
{"smiles": "COc1ccccc1CC(=O)Nc1ccc2c(c1)C(=O)NC2=O", "values": [{"measurement": "AC50", "setting": "[1]", "result": "7.94 µM [falling, partial curve]"}]}
{"smiles": "C[C@H]1C=C(C(=O)NCc2nc3ccccc3[nH]2)O[C@@H](OCc2ccc(CO)cc2)C1", "values": [{"measurement": "AC50", "setting": "[1]", "result": "3.16 µM [falling, full curve]"}]}
{"smiles": "CCOC(=O)CSc1ncnc2c1cnn2-c1ccc(C)cc1", "values": [{"measurement": "AC50", "setting": "[1]", "result": "20.6 µM [falling, single point]"}]}
{"smiles": "COc1ccc(-c2noc(CCC(=O)NCCc3cccc(C)c3)n2)cc1", "values": [{"measurement": "AC50", "setting": "[1]", "result": "0.794 µM [rising, full curve, poor fit]"}]}
{"smiles": "COC(=O)c1ccccc1NC(=O)/C=C/c1cc(OC)c(OC)c(OC)c1", "values": [{"measurement": "AC50", "setting": "[2]", "result": "20.6 µM [falling, single point]"}]}
{"smiles": "CCCC(CCC(=O)Nc1ccc(S(N)(=O)=O)cc1)C(=O)O", "note": "(configuration not stated)", "values": [{"measurement": "AC50", "setting": "[1]", "result": "20.6 µM [falling, single point]"}]}
{"smiles": "Cc1nc(C)c(C(=O)Nc2ncc([N+](=O)[O-])s2)o1", "values": [{"measurement": "AC50", "setting": "[1]", "result": "8.91 µM [falling, partial curve]"}]}
{"smiles": "O=C(NCCc1ccccc1)c1ccc2nc(N3CCOCC3)sc2c1", "values": [{"measurement": "AC50", "setting": "[1]", "result": "0.562 µM [rising, full curve, poor fit]"}]}
{"smiles": "CCOc1ccc(OCC)c(NC(=O)C2CCCN2S(=O)(=O)c2cccc3cccnc23)c1", "note": "(configuration not stated)", "values": [{"measurement": "AC50", "setting": "[1]", "result": "2.31 µM [rising, single point]"}]}
{"smiles": "COC(=O)C(Oc1ccc2c(-c3ccc(OC)cc3)cc(=O)oc2c1)c1ccccc1", "note": "(configuration not stated)", "values": [{"measurement": "AC50", "setting": "[1]", "result": "9.2 µM [falling, partial curve]"}]}
{"smiles": "Cc1ccnc(N(C(=O)c2cccs2)C(=O)c2cccs2)c1", "values": [{"measurement": "AC50", "setting": "[1]", "result": "20.6 µM [falling, single point]"}]}
{"smiles": "CCOc1ccccc1N(CC(=O)NCc1ccccc1)C(=O)CCC(=O)Nc1cc(C)ccn1", "values": [{"measurement": "AC50", "setting": "[1]", "result": "7.94 µM [falling, partial curve]"}]}
{"smiles": "CCCCn1c(=O)n(CC(O)c2ccccc2)c(=O)c2c1ncn2C1CCCC1", "note": "(configuration not stated)", "values": [{"measurement": "AC50", "setting": "[1]", "result": "12.6 µM [falling, partial curve, poor fit]"}]}
{"smiles": "O=C(Nc1ccc(Oc2cccnc2)cc1)c1ccccc1Cl", "values": [{"measurement": "AC50", "setting": "[1]", "result": "9.2 µM [falling, partial curve]"}]}
{"smiles": "O=C(CSc1nc2ccccc2s1)NNC(=S)Nc1ccccc1", "values": [{"measurement": "AC50", "setting": "[1]", "result": "11.6 µM [rising, partial curve, poor fit]"}]}
{"smiles": "CC(=O)Nc1ccc(NC(=O)COc2ccc(Cl)cc2Cl)cc1", "values": [{"measurement": "AC50", "setting": "[1]", "result": "10 µM [rising, partial curve, poor fit]"}]}
{"smiles": "C/C(=N\\NC(=O)c1c(Cl)c(C)nn1C)c1cccc(NC(=O)C2CCCC2)c1", "values": [{"measurement": "AC50", "setting": "[1]", "result": "2.24 µM [falling, partial curve]"}]}
{"smiles": "CCOC(=O)Cc1csc(SCc2nc3sc4c(c3c(=O)[nH]2)CCC4)n1", "values": [{"measurement": "AC50", "setting": "[1]", "result": "14.6 µM [falling, partial curve]"}]}
{"smiles": "COc1ccc(CNC(=O)CSCc2ccc(C)cc2)c(OC)c1", "values": [{"measurement": "AC50", "setting": "[1]", "result": "1 µM [rising, full curve, poor fit]"}]}
{"smiles": "O=C(NCC(c1ccc2c(c1)OCO2)N1CCOCC1)C(=O)Nc1ccc(Cl)cc1", "note": "(configuration not stated)", "values": [{"measurement": "AC50", "setting": "[1]", "result": "1.58 µM [falling, full curve, poor fit]"}]}
{"smiles": "CC(=O)CC(c1ccccc1)c1c(O)c2ccccc2oc1=O", "note": "(configuration not stated)", "values": [{"measurement": "AC50", "setting": "[1]", "result": "2.24 µM [rising, full curve, poor fit]"}]}
{"smiles": "CC1=C/C(=C(\\c2cc(C)c(O)c(Br)c2)c2ccccc2S(=O)(=O)O)C=C(Br)C1=O", "values": [{"measurement": "AC50", "setting": "[1]", "result": "12.6 µM [falling, partial curve]"}]}
{"smiles": "N/C(=N\\OC(=O)c1ccc(Cl)cc1)c1[nH]ncc1Br", "values": [{"measurement": "AC50", "setting": "[1]", "result": "8.91 µM [falling, partial curve, poor fit]"}]}
{"smiles": "CCC(NC(=O)CCc1c(C)c2cc3c4c(oc3cc2oc1=O)CCCC4)C(=O)O", "note": "(configuration not stated)", "values": [{"measurement": "AC50", "setting": "[1]", "result": "15.8 µM [rising, partial curve]"}, {"measurement": "AC50", "setting": "[2]", "result": "12.6 µM [falling, partial curve]"}]}
{"smiles": "COc1ccc(/C=C/C(=O)NC(=S)NCc2ccccc2)cc1OC", "values": [{"measurement": "AC50", "setting": "[1]", "result": "35.5 µM [rising, single point]"}]}
{"smiles": "Cc1nc2nc(NC(=O)c3ccco3)nn2c(C)c1Cl", "values": [{"measurement": "AC50", "setting": "[1]", "result": "3.55 µM [falling, partial curve]"}]}
{"smiles": "COc1ccc(NC(=O)CN2CCC3(O)CCCCC3C2c2cc(OC)ccc2OC)cc1", "note": "(configuration not stated)", "values": [{"measurement": "AC50", "setting": "[1]", "result": "35.5 µM [falling, single point]"}, {"measurement": "AC50", "setting": "[2]", "result": "25.1 µM [rising, partial curve, poor fit]"}]}
